Test results reported in publication PMC7913596, “Tribbles Pseudokinase 2 (TRIB2) Regulates Expression of Binding Partners in Bovine Granulosa Cells” (International Journal of Molecular Sciences, 2021).
Results are given in words; binding and its absence hold for the method and conditions named. In cells and extracts the contact can be indirect. Some entries that bind do so weakly or less than the wild type. Tags and fused reporters may be left off the sequences shown.

T1: Tribbles pseudokinase 2 (TRIB2), AcGFP1 fusion in HEK 293 cells (pAcGFP1-TRIB2) (bovine) (UniProt Q5GLH2)
T1 sequence: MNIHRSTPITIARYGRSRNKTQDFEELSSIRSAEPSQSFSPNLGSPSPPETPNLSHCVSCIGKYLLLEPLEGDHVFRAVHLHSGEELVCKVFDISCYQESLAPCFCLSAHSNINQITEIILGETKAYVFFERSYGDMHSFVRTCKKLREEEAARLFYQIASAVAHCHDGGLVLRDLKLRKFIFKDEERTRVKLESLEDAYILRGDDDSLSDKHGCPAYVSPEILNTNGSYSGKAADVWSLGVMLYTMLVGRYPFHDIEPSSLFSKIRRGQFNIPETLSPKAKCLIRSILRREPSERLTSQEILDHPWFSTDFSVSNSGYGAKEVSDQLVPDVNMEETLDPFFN


How the values were obtained:
[1] = target: T1, Tribbles pseudokinase 2 (TRIB2), AcGFP1 fusion in HEK 293 cells (pAcGFP1-TRIB2) (bovine); experiment: co-IP; Matchmaker Co-IP system in co-transfected HEK 293 cells (pAcGFP1 bait, ProLabel prey); read-out by ProLabel enzyme complementation, luminescence (RLU); fold induction 60 min after substrate against the experimental control (pAcGFP1-TRIB2 and ProLabel-empty vector)
[2] = target: T1, Tribbles pseudokinase 2 (TRIB2), AcGFP1 fusion in HEK 293 cells (pAcGFP1-TRIB2) (bovine); experiment: co-IP; co-transfected HEK cells; protein extracts precipitated with anti-AcGFP antibodies, Western blot with anti-INPPL1 or anti-INHBA

| binding [1] | binding [2] | Binder |
| --- | --- | --- |
| binds |  | succinate dehydrogenase complex iron sulfur subunit B (SDHB), ProLabel prey in HEK 293 cells (protein, UniProt Q3T189 29-280) AQTAAAAAPRIKKFAIYRWDPDKTGDKPHMQTYEIDLNNCGPMVLDALIKIKNEIDSTLTFRRSCREGICGSCAMNINGGNTLACTRRIDTNLSKVSKIYPLPHMYVIKDLVPDLSNFYAQYKSIEPYLKKKDESQGGKEQYLQSIEDREKLDGLYECILCACCSTSCPSYWWNGDKYLGPAVLMQAYRWMIDSRDDFTEERLAKLQDPFSLYRCHTIMNCTQTCPKGLNPGKAIAEIKKMMATYKEKQASA |
| binds |  | 5'-nucleotidase ecto (NT5E), ProLabel prey in HEK 293 cells (protein, UniProt Q05927 27-549) WELTILHTNDVHSRLEQTSEDSSKCVNASRCVGGVARLATKVHQIRRAEPHVLLLDAGDQYQGTIWFTVYKGTEVAHFMNALGYDAMALGNHEFDNGVEGLIDPLLKEVNFPILSANIKAKGPLASKISGLYSPYKILTVGDEVVGIVGYTSKETPFLSNPGTNLVFEDEITALQPEVDKLKTLNVNKIIALGHSGFEVDKLIAQKVKGVDVVVGGHSNTFLYTGNPPSKEVPAGQYPFIVTSDDGRKVPVVQAYAFGKYLGYLKVEFDEKGNVVTSHGNPILLNSSIPEDPNIKADINKWRVKLDNYSTQELGKTIVYLDGTAQSCRFRECNMGNLICDAMINNNLRHPDEMSWNHVSMCILNGGGIRSPIDERNNGTITWENLAAVLPFGGTFDLVQLKGSTLKKAFEHSVHRYGQATGEFLQVGGIHVVYDISRNPGDRVVKLEVLCTQCRVPSYEPLRMDKVYKVILPSFLVSGGDGFQMIKDEKIKHDSGDQDINVVSGYISKMKVLYPAVEGRIQFS |
|  | binds | inositol polyphosphate phosphatase-like 1 (INPPL1), ProLabel prey in HEK 293 cells (natural protein, Bos taurus, UniProt E1BBJ7 1-1264, looked up, Bos taurus inositol polyphosphate phosphatase-like 1; Bands at around 50 kDa and 100 kDa after co-IP, around 160 kDa in extracts not subjected to co-IP; The insert may be the cDNA fragment found in the two-hybrid screen; also called SHIP2; SH2-containing inositol 5'-phosphatase 2; source: HEK 293, transfected, in lysate) MASACGAPGPGGAGPGAALGSPAPAWYHRDLSRAAAEELLARAGRDGSFLVRDSESVAGAFALCVLYQKHVHTYRILPDGEDFLAVQTSQGVPVRRFQTLGELISLYAQPNQGLVCALLLPVEREREPDPPDDRDASDGEDEKPPLPPRSGSTSISAPMGPSSPPAAPETPTTPAAESAPNGLSTVSHEYLKGSYGLDLEAVRGGASNLPHLTRTLATSCRRLHSEVDKVLSGLEILSKVFDQQSSPMVTRLLQQQNPPQTGEQELESLVLKLSVLKDFLSGIQKKALKALQDMSSTAPPAPLQPSTRKAKTIPVQAFEVKLDVTLGDLTKIGKSQKFTLSVDVEGGRLVLLRRQRDSQEDWTTFTHDRIRQLIKSQRVQNKLGVVFEKEKDRTQRKDFIFVSARKREAFCQLLQLMKNKHSKQDEPDMISIFIGTWNMGSVPPPKNVTSWFTSKGLGKTLDEVTVTIPHDIYVFGTQENSVGDREWLDLLRGGLKELTDLDYRPIAMQSLWNIKVAVLVKPEHENRISHVSTSSVKTGIANTLGNKGAVGVSFMFNGTSFGFVNCHLTSGNEKTARRNQNYLDILRLLTLGDRQLSAFDISLRFTHLFWFGDLNYRLDMDIQEILNYISRKEFEPLLRVDQLNLEREKHKVFLRFSEEEISFPPTYRYERGSRDTYAWHKQKPTGVRTNVPSWCDRILWKSYPETHIICNSYGCTDDIVTSDHSPVFGTFEVGVTSQFISKKGLSKTSDQAYIEFESIEAIVKTASRTKFFIEFYSTCLEEYKKSFENDAQSSDNINFLKVQWSSRQLPTLNPILADIEYLQDQHLLLTVKSMDGYESYGECVVALKSMIGSTAQQFLTFLSHRGEETGNIRGSMKVRVPTERLGTRERLYEWISIDKDEAGAKSKAPSVSRGSQDPRSGSRKPASTEASCPLSKLFEEPEKPPPTGRPPAPPRAAPREEPLTPRLKPEGAPELEGVVAPPPKNSFNNPAYYVLEGVPHQLLPPEPPSPARAPVPPATKNKVAITVPAPQLGRHRPPRAGEGSSSDEDSGGTLPPPDFPPPPLPDSAIFLPPGLDPLPGPVIRGRSGGEARGPPPPKAHPRPPLPPGPSPASTFLGDVASGDDRSCSVLQMAKTLSEVDYAPAGPGRAMLLPGPLELQPPRGLPSDYGRPLSFPPPRIRESIQEDLAEEAPCPQVGRAGGLGEAGMGAWLRAIGLERYEEGLVHNGWDDLEFLSDITEEDLEEAGVQDPAHKRLLLDTLQLSK |
| binds |  | stearoyl-CoA desaturase (SCD), ProLabel prey in HEK 293 cells (protein, UniProt Q9TT94 1-359) MPAHLLQEEISSSYTTTTTITAPPSRVLQNGGGKLEKTPLYLEEDIRPEMRDDIYDPTYQDKEGPKPKLEYVWRNIILMSLLHLGALYGITLIPTCKIYTYIWVLFYYLMGALGITAGAHRLWSHRTYKARLPLRVFLIIGNTMAFQNDVFEWSRDHRAHHKFSETDADPHNSRRGFFFSHVGWLLVRKHPAVKEKGSTLNLSDLRAEKLVMFQRRYYKPGVLLLCFILPTLVPWYLWDETFQNSLFFATLFRYALGLNVTWLVNSAAHMYGYRPYDKTINPRENILVSLGAAGEGFHNYHHTFPYDYSASEYRWHINFTTFFIDCMAAIGLAYDRKKVSKAAILARIKRTGEESYKSG |
